{"source": "PubChem BioAssay AID1259254 – NCATS | 2017", "screen": "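Finding genes that stop cells copying their DNA twice in one cycle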 (primary screen)", "cell system": "human HCT116 colorectal cancer cells", "knock-down reagent": "single siRNA against human genes", "duration": "3 days", "read-out": "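Imaged Hoechst DNA stain sorts each cell into a cycle phase by DNA amount; per plate, G2 fraction set to 0% for non-targeting and 100% for GMNN siRNA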", "reading the numbers": "G2 robust z-score and G2 cells, % of GMNN control: higher = more G2 cells, more excess DNA replication", "call rule": "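An siRNA counts as active if its G2 robust z-score lies at least 5 MADs above the screen median; here such calls match roughly 38% of GMNN control or more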", "note": "This is a random part of about 59,000 reagents tested. Over the whole deposit, about 1,550 (2.6%) got an active call. 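G2 share is only a proxy for re-replication; each gene was hit by three separate siRNAs, and active genes were retested.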 Unmarked entries are inactive. The numbers tell different reagents against one gene apart. Not all columns of the deposit are shown. The record does not give: the amount of reagent."}
{"target gene": "FAXDC2", "siRNA no.": 1, "G2 robust z-score": -0.0575, "G2 cells, % of GMNN control": 2.56}
{"target gene": "FAXDC2", "siRNA no.": 2, "G2 robust z-score": 0.387, "G2 cells, % of GMNN control": 5.69}
{"target gene": "FAXDC2", "siRNA no.": 3, "G2 robust z-score": 0.715, "G2 cells, % of GMNN control": 8}
{"target gene": "DCAF13", "siRNA no.": 1, "G2 robust z-score": 3.42, "G2 cells, % of GMNN control": 27}
{"target gene": "DCAF13", "siRNA no.": 2, "G2 robust z-score": 1.31, "G2 cells, % of GMNN control": 12.2}
{"target gene": "DCAF13", "siRNA no.": 3, "G2 robust z-score": 0.255, "G2 cells, % of GMNN control": 4.76}
{"target gene": "LOC729291", "siRNA no.": 1, "G2 robust z-score": -0.0631, "G2 cells, % of GMNN control": 2.52}
{"target gene": "LOC729291", "siRNA no.": 2, "G2 robust z-score": -0.803, "G2 cells, % of GMNN control": -2.68}
{"target gene": "LOC729291", "siRNA no.": 3, "G2 robust z-score": 0.058, "G2 cells, % of GMNN control": 3.38}
{"target gene": "REPIN1", "siRNA no.": 1, "G2 robust z-score": -0.997, "G2 cells, % of GMNN control": -4.04}
{"target gene": "REPIN1", "siRNA no.": 2, "G2 robust z-score": -0.993, "G2 cells, % of GMNN control": -4.02}
{"target gene": "REPIN1", "siRNA no.": 3, "G2 robust z-score": -0.267, "G2 cells, % of GMNN control": 1.09}

Ordered by “G2 cells, % of GMNN control” (descending): 3 of the entries above.
{"target gene": "DCAF13", "siRNA no.": 1, "G2 robust z-score": 3.42, "G2 cells, % of GMNN control": 27}
{"target gene": "DCAF13", "siRNA no.": 2, "G2 robust z-score": 1.31, "G2 cells, % of GMNN control": 12.2}
{"target gene": "DCAF13", "siRNA no.": 3, "G2 robust z-score": 0.255, "G2 cells, % of GMNN control": 4.76}

Further results follow:
{"target gene": "C2CD3", "siRNA no.": 1, "G2 robust z-score": -0.419, "G2 cells, % of GMNN control": 0.0161}
{"target gene": "C2CD3", "siRNA no.": 2, "G2 robust z-score": 0.596, "G2 cells, % of GMNN control": 7.16}
{"target gene": "C2CD3", "siRNA no.": 3, "G2 robust z-score": 1.46, "G2 cells, % of GMNN control": 13.2}
{"target gene": "GRHL1", "siRNA no.": 1, "G2 robust z-score": -0.686, "G2 cells, % of GMNN control": -1.86}
{"target gene": "GRHL1", "siRNA no.": 2, "G2 robust z-score": 0.36, "G2 cells, % of GMNN control": 5.5}
{"target gene": "GRHL1", "siRNA no.": 3, "G2 robust z-score": -1.34, "G2 cells, % of GMNN control": -6.47}
